From doi:10.1101/2020.07.05.188557
These are yes or no findings as the source states them, for the method shown. Binding seen in cells or lysates may run through a third protein. A result given as binding can be weak or reduced; the word gives no strength.

Columns and labels:
Assay in all cases: split reporter
[1] = molecular target: ssy1-2TM-Cub-GST (S. cerevisiae)
[2] = molecular target: ssy1-10TM-Cub-GST (S. cerevisiae)
[3] = molecular target: agp1-2TM-Cub-GST (S. cerevisiae)
[4] = molecular target: agp1-4TM-Cub-GST (S. cerevisiae)
[5] = molecular target: agp1-10TM-Cub-GST (S. cerevisiae)
[6] = molecular target: agp1-6TM-Cub-GST (S. cerevisiae)
[7] = molecular target: agp1-12TM-Cub-GST (S. cerevisiae)
[8] = molecular target: ssy1-8TM-Cub-GST (S. cerevisiae)
[9] = molecular target: ssy1-4TM-Cub-GST (S. cerevisiae)
[10] = molecular target: agp1-8TM-Cub-GST (S. cerevisiae)
[11] = molecular target: ssy1-12TM-Cub-GST (S. cerevisiae)
[12] = molecular target: ssy1-6TM-Cub-GST (S. cerevisiae)

binding [1]: binds
binding [2]: binds
binding [3]: binds
binding [4]: binds
binding [5]: binds
binding [6]: binds
binding [7]: binds weakly
binding [8]: binds
binding [9]: binds
binding [10]: binds
binding [11]: binds
binding [12]: binds
B1: Shr3Δ94-NubA (protein, UniProt Q02774)
chain: MFSYSDFCSIGTAMILSATTFLMGVFFSNMPYDYHLLFNPNSTQEHFDLALRHYQILHETPLPVIVTLCVVAGIGLVGGTIKVFKPNPELQMFEYCSLGLYVLAICVFLTNVKTGIDCSVTENQGLAVIASSNIILLVMFAGVIILQIGLWYSNWDLQKRLKEFYAQEEREAANAGKKTEKVDNAKKNDNKSKGAQKRKNAKK
